# Values joined by “and” are separate entries in the source; they are usually repeats but may differ in a detail not shown here. Equal values may be shown once. The list shows a part of the results. These are further read-outs of the screen, such as a control signal, another cell line or another target. No call is given for them. Most of these compounds were active or inconclusive in the main read-out, so they are no random draw. Potencies come from curve fits of mixed quality, noted in brackets.
# Experiment: Cell signaling CRE-BLA (Fsk stim)
# Conditions: CHO CRE-bla reporter (cAMP response element driving beta-lactamase), forskolin EC10, beta-lactamase ratio; measured here: 460 nm blue channel
# Text: NIH Molecular Libraries Screening Centers Network [MLSCN]
# NIH Chemical Genomics Center [NCGC]
# Assay Provider: Marshall W. Nirenberg, U.S. National heart lung & blood institute
# Memories persist for different lengths of time, from seconds or minutes to a lifetime. There are two kinds of memory: short-term memory (STM) and long-term memory (LTM). STM lasts for minutes to hours, which maybe mediated by modifications of molecules involved in synaptic functions. LTM lasts for days or longer, and may be due to the formation of new synapses or restructuring of existing synapses. LTM, but not STM, requires gene transcription and synthesis of proteins. CREB (cyclic-AMP Responsive Element Binding Protein) is one of the candidates plays an important role for enhancement of some types of LTM. CREB, a family of transcription factors, regulates the transcription of genes containing cAMP Responsive Elements (CRE). CRE is a nucleotide sequence often found in the promoter regions of genes that are binding sites for CREB.
# Using a beta-lactamase reporter-gene under control of cAMP responsive element, a cell-based assay [CellSensor(TM) CRE-bla CHO developed by Invitrogen Corp.] was used to measure forskolin-induced signaling. Library compounds were measured for their ability to modulate positively or negatively the action of EC10 NKH 477, a water soluble forskolin, on reporter gene activity. Compounds were screened in a titration series in 1536-well format. Positive and negative modulators were identified based on the AC50 values derived from the screening data.
# NCGC Assay Protocol Summary
# 2000 cells/5uL in Opti-MEM medium containing 0.5% dialyzed FBS, 0.1 mM NEAA, 1 mM sodium pyruvate and 10 mM HEPES was dispensed into 1536-well plates and cells were cultured at 37 degrees Celsius overnight. […] And then the plates were incubated at 37 degrees Celsius for 3 hours. 1 uL of CCF4-dye mixture was added to each well. After incubated at room temperature for 2 hours the plates were measured on an EnVision plate reader at Excitation 405nm, Emission1=460nm and Emission 2=530nm. The %Activity was determined from the ratio of 460nm/530nm.
# Keywords: NIH Roadmap, MLSCN, MLSMR, qHTS, NCGC, CRE, beta-lactamase reporter-gene assay.
row,Structure (SMILES),AC50
1,CN1CCN(c2ccc([N+](=O)[O-])c3[nH]o[n+](=O)c23)CC1,"3.98 µM [rising, single point]"
2,CCCCn1c(O)c(C(C)=NCCCN(C)C)c(=O)[nH]c1=O,"3.98 µM [falling, single point]"
3,CC1=NN(c2ccccc2)C(=O)[C@@H]1N=Nc1ccc([As](=O)(O)O)c(O)c1,"3.98 µM [falling, partial curve, poor fit]"
4,CC(C)(C)n1c(O)c(C=Nc2ccc3c(c2)CCC3)c(=O)[nH]c1=O,"15.8 µM [rising, single point]"
5,COc1ccc(N=C(C)c2c(O)n(C3CCCCC3)c(=O)[nH]c2=O)c(OC)c1,"0.1 µM [rising, full curve, poor fit]"
6,COc1cc2c(cc1OC)[C@H](C)NCC2,"12.6 µM [rising, partial curve, poor fit]"
7,CC1(C)N(O)C(c2ccc(C(=O)O)cc2)=[N+]([O-])C1(C)C,"3.16 µM [rising, partial curve, poor fit]"
8,CN(C)[C@@H]1C(=O)C(C(N)=O)=C(O)[C@]2(O)C(=O)C3=C(O)c4c(O)cccc4[C@@](C)(O)[C@@H]3C[C@@H]12,"0.0794 µM [rising, full curve, poor fit]"
9,NNC(N)=O,"12.6 µM [falling, single point]"
10,O=c1c2ccccc2nc(CSc2ncnc3nc[nH]c23)n1-c1ccccc1,"0.2 µM [rising, full curve, poor fit]"
11,CCOc1cccc(C2NCc3ccccc3-n3cccc32)c1O (stereo not drawn),"3.16 µM [falling, full curve, poor fit]"
12,NCCc1ccc(O)cc1,"25.1 µM [falling, partial curve]"
13,CCCS(=O)(=O)N1CCC(C(=O)N2CCC3(CC2)OCCO3)CC1,"0.251 µM [rising, full curve, poor fit]"
14,CCCNC(=O)c1c(N)n(Cc2ccc3c(c2)OCO3)c2nc3ccccc3nc12,"0.398 µM [rising, full curve]"
15,O=c1ccc2cc(O[C@@H]3O[C@@H](CO)[C@@H](O)[C@@H](O)[C@H]3O)c(O)cc2o1,"15.8 µM [rising, partial curve]"
16,Nc1c(C(=O)NC2CCCC2)c2nc3ccccc3nc2n1CC1CCCO1 (stereo not drawn),"12.6 µM [rising, partial curve]"
17,CCC(=NCc1ccco1)c1c(O)n(-c2ccc(OC)cc2)c(=O)[nH]c1=O,"12.6 µM [rising, partial curve]"

row,Structure (SMILES),AC50
1,CCCCn1c(O)c(C(C)=NCc2ccc(F)cc2)c(=O)[nH]c1=O,"25.1 µM [rising, partial curve]"
2,CCOC(=O)C(O)(c1ccc(N)c(OC)c1)C(F)(F)F (stereo not drawn),"25.1 µM [rising, single point]"
3,CN1C(=O)C(Cc2c[nH]c3ccccc23)C(=O)N(C)C1=O,"15.8 µM [falling, partial curve, poor fit]"
4,COc1ccc2c3c([nH]c2c1)C(C)=NCC3,"10 µM [rising, partial curve] and 25.1 µM [rising, partial curve]"
5,Cn1c2ccccc2c2c(C(=O)N3CCC4(CC3)OCCO4)cn(C3CCCC3)c(=O)c21,"0.398 µM [rising, full curve, poor fit]"
6,C#CCN1C(C)=C(C(=O)CCO)[C@@H](c2cccc(-n3oo3)c2)C(C(=O)OC)=C1C,"1.26 µM [rising, full curve, poor fit]"
7,CC[C@H]1CN2CC[C@@H]1C[C@@H]2[C@H](O)c1ccnc2ccccc12,"0.251 µM [rising, full curve, poor fit]"
8,CC(C)(Cc1c[nH]c2ccc(Cl)cc12)NCCOc1ccccc1OCC1CC1,"25.1 µM [falling, partial curve, poor fit]"
9,Cc1ccc(C[N+](C)(C)C)o1,"12.6 µM [falling, single point]"
10,CCN1CCC2(CCNC2)C1 (stereo not drawn),"10 µM [rising, single point]"
11,C=CP(=O)(O)c1ccccc1,"0.1 µM [rising, partial curve]"
12,COc1ccccc1N1CCN(Cc2ccc(Br)s2)CC1,"0.631 µM [rising, partial curve]"
13,N#Cc1cc2c(nc1SCC(=O)Nc1ccc(Cl)cc1)C1CCN2CC1,"15.8 µM [rising, single point]"
14,COc1ccc2c(c[n+](C)c3c4cc5c(cc4ccc23)OCO5)c1OC,"12.6 µM [rising, partial curve]"
15,CCc1cccc(CC)c1N(COC)C(=O)CCl,"31.6 µM [falling, partial curve, poor fit]"
16,CCCCn1c(O)c(C=NC2CC3CCC2(C)C3(C)C)c(=O)[nH]c1=O (stereo not drawn),"12.6 µM [rising, partial curve]"

# Compounds shown so far that have a furan ring, fused or not, in the order listed:
row,Structure (SMILES),AC50
17,CCC(=NCc1ccco1)c1c(O)n(-c2ccc(OC)cc2)c(=O)[nH]c1=O,"12.6 µM [rising, partial curve]"
9,Cc1ccc(C[N+](C)(C)C)o1,"12.6 µM [falling, single point]"

# Reference: PubChem BioAssay AID662 (National Center for Advancing Translational Sciences (NCATS), 2007)
